Results from patent publication US10941435B2, “Methods and compositions for detecting or measuring caspases or apoptosis” (priority 2016, dated 2021).
Some results were stated once for a whole list of compounds, not compound by compound.

Test system: Jurkat cells
Assay: Flow cytometry of Jurkat cells +/- 0.5 μM staurosporine, stained 4 hours, no wash
Type: cell-based
Conditions: 1 μM dye, 4 hours at 37° C., no washing, FIG. 6A/6B

In the case of `CC(=O)N[C@@H](CC(=O)O)C(=O)N[C@@H](CCC(=O)O)C(=O)N[C@H](C(=O)N[C@@H](CC(=O)O)C(=O)NCCCCCN(C)c1ccc(-c2nc3ccc(-c4nc5ccc(N6CCN(C)CC6)cc5[nH]4)cc3[nH]2)cc1)C(C)C` [Compound 9], the “difference between normal and apoptotic cells, histograms” value was no less than 1 log.
